# In all, about 320,000 compounds went through this assay and about 22,000 (6.9%) were called active. This list was built around the results that the source calls inconclusive (neither active nor inactive); the mix of calls is not that of the screen. Calls follow the shape of the dose curve; as a rule, active = well fitted inhibition curve with a large enough effect; inconclusive = small, poorly fitted or top-dose-only effect, or another doubt; inactive = no such curve, though single readings can be large or run the other way. Potencies of inconclusive entries are doubtful fits and often do not repeat. More than one record can exist for a structure, and the calls need not agree.
# Experiment: Primary qHTS for delayed death inhibitors of the malarial parasite plastid, 96 hour incubation
# Settings: P. falciparum luciferase reporter growth; series mostly up to 28.7 µM; activity change, negative = inhibition: at the top concentration
# In short: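 Parasite growth measured via integrated firefly luciferase reporter in P. falciparum. Infected erythrocytes at 2% hematocrit, 0.05% parasitemia final were treated 96 hours at 37 C under 5% CO2, and luminescence was read.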
# % is scaled to controls: 0 for no effect and ±100 for the full control effect; potency is read from the fitted curve at half-maximal effect.
Structure (SMILES),Potency,"activity change, negative = inhibition"
COc1ccc(/C=N/N(Cc2ccccc2)c2ccccc2)cc1O,"inconclusive: 9.28 µM [inhibitor, single point]",
COc1cccc(Oc2cc(NN3CCCCC3)c([N+](=O)[O-])cc2[N+](=O)[O-])c1OC,"inconclusive: 11.7 µM [inhibitor, partial curve, poor fit]",
Cc1ccc(N(CC(=O)N2CCN(Cc3ccccc3)CC2)S(C)(=O)=O)cc1C,"inconclusive: 9.28 µM [inhibitor, single point]",
CC(NC(=O)c1ccnn1C)C1CCCO1 (centres undefined),"inconclusive: 4.15 µM [inhibitor, single point]",
COc1nc(Oc2ccc(=O)n(C)n2)nc(N(C)C)n1,active: 3.7 µM,
CC(C)C(C(=O)NCc1ccccc1)N(CC1CCCO1)C(=O)CNS(=O)(=O)c1ccccc1 (centres undefined),,inactive: -3.82%
N#CC1=C(SCC(=O)Nc2ccc(C(=O)O)cc2)NC(=O)CC1c1ccco1 (centres undefined),,inactive: 16.1%
COc1ccc(C2=NN(C(=O)CN3CCCC3)C(c3ccc(OC)cc3)C2)cc1 (centres undefined),"inconclusive: 13.1 µM [inhibitor, single point]",
COCCCNC(=O)c1c(N)n(Cc2ccco2)c2nc3ccccc3nc12,"inconclusive: 10.4 µM [inhibitor, single point]",
Cc1ccccc1CSCc1nc(N)nc(Nc2ccccc2C)n1,,inactive: -18.1%
CC(C)C(=O)Nc1ccccc1C(=O)N/N=C/c1ccc([N+](=O)[O-])cc1,"inconclusive: 4.65 µM [inhibitor, partial curve]",
COc1cccc(-c2cc(C(=O)Nc3cnn(Cc4ccccc4C)c3)no2)c1,"inconclusive: 11.7 µM [inhibitor, partial curve, poor fit]",
Cc1cccc(N2CCN(C(=S)NC3CCCCC3)CC2)c1C,,inactive: 0.848%
CNS(=O)(=O)c1cccc(C(=O)OCC(=O)N2CCc3ccccc3C2)c1,"inconclusive: 11.7 µM [inhibitor, single point]",
Cc1ccc(OCCn2ccc(=O)[nH]c2=O)cc1C,"inconclusive: 14.7 µM [inhibitor, partial curve, poor fit]",
O=C(COC(=O)CCNS(=O)(=O)c1ccccc1)NNC(=O)c1ccccc1,,inactive: 2.02%
CCOC(=O)C(C)Oc1cccc2c(=O)n(CC(=O)Nc3ccc(OCC)cc3)ccc12 (centres undefined),,inactive: 5.55%
CC1CC(C)CN(C(=O)COC(=O)C2CCN(S(=O)(=O)c3ccc4c(c3)OCCO4)CC2)C1 (centres undefined),"inconclusive: 4.15 µM [inhibitor, single point]",
O=C(NN=C1CCCC1)c1n[nH]c2c1CCC2,"inconclusive: 18.5 µM [inhibitor, single point]",
COc1ccc2oc(C(=O)N(C)Cc3ccc(OC(F)F)cc3)c(C)c2c1,"inconclusive: 18.5 µM [inhibitor, single point]",
CCOc1cc(C2NN=C(c3ccccc3)S2)ccc1OCc1ccccc1Cl (centres undefined),,inactive: 144%
COC(=O)Nc1ccc(SCC(=O)c2ccc(Cl)cc2)cc1,"inconclusive: 0.415 µM [inhibitor, partial curve, poor fit]",
c1cc2c(nn1)CCc1nonc1-2,,inactive: 39.1%
COc1cc(C(=O)NCc2cc(C)nc3ccccc23)cc(OC)c1OC,,inactive: -24.6%
Cc1cc(C)cc(C(=O)NN2CCOCC2)c1,"inconclusive: 11.7 µM [inhibitor, partial curve, poor fit]",

Structure (SMILES),Potency,"activity change, negative = inhibition"
Cc1ccccc1C(=O)N[C@H](C(=O)OCC(=O)c1ccc[nH]1)C(C)C,,inactive: 318%
CC(C)n1cnc2c(Nc3cccc(F)c3)nc(NCCO)nc21,"inconclusive: 18.5 µM [inhibitor, single point]",
NNC(=O)C12CC3CC(C1)CC(n1ncnn1)(C3)C2,,inactive: -26.4%
CC(C)NC(=O)C1(O)c2ccccc2NC(=O)N1c1ccc(Cl)c(Cl)c1 (centres undefined),active: 10.4 µM,
CCOC(=O)Nc1ccc2nc(Sc3ccc(Cl)cc3)sc2c1,active: 14.7 µM,
O=C(NC(=S)N1CCc2ccccc21)c1ccccc1Br,"inconclusive: 18.5 µM [inhibitor, single point]",
COc1cc(C(=O)Nc2c(C(=O)O)[nH]c3ccccc23)cc(OC)c1OC,,inactive: -0.587%
CCc1nnc(NS(=O)(=O)c2ccc(N=Cc3c(C)[nH]n(-c4ccc(C)c(C)c4)c3=O)cc2)s1,,inactive: -16.2%
OC(CNCc1ccccc1F)COc1cccc2ccccc12 (centres undefined),"inconclusive: 7.38 µM [inhibitor, partial curve]",
CCN(CC)S(=O)(=O)c1cc(C(=O)Nc2cc(C)on2)c(Cl)cc1Cl,"inconclusive: 18.5 µM [inhibitor, single point]",
O=C(CCc1nnc(Cc2ccc3c(c2)OCO3)o1)NCCc1ccccc1Cl,,inactive: 10.2%
Cc1ccc2c(c1)C(c1ccccc1)N(C(=O)CC(C)C)CC(=O)N2 (centres undefined),"inconclusive: 0.104 µM [inhibitor, full curve, poor fit]",
CCCN(C(=O)CSCC(=O)Nc1ccc(OC)cc1)c1c(N)n(Cc2ccccc2)c(=O)[nH]c1=O,,inactive: 7.61%
O=C(NCC1CCCO1)c1ccc2c(=O)n(Cc3ccco3)c(SCC(=O)N3CCCC3)nc2c1 (centres undefined),,inactive: -4.93%
O=C(Nc1cccc(NC(=O)c2ccccc2)n1)c1ccccc1,"inconclusive: 4.15 µM [inhibitor, partial curve, poor fit]",
O=C(COC(=O)c1ccc(S(=O)(=O)N2CCCC2)cc1)Nc1ccccc1,,inactive: -4.57%
COc1ccc(C(=O)N2CCN(c3cccc(C)c3C)CC2)cc1S(=O)(=O)NC1CC1,"inconclusive: 10.4 µM [inhibitor, single point]",
Cn1c(CSCc2ccccc2)nnc1SCC(=O)Nc1ccc(C(=O)O)cc1,,inactive: 15.5%
Cc1cccc(OCc2nnc(SCC(=O)NC3CCCC3)n2C)c1,,inactive: -5.1%
CCC(N)Cc1c[nH]c2ccccc12 (centres undefined),active: 0.675 µM,
CCn1cc(C(=O)N[C@@H](CCSC)C(=O)NC(C)(C)CO)c(=O)c2cc3c(cc21)OCO3,active: 1.47 µM,
COc1cccc(C(=O)Nc2ncc3c(n2)CC(C)CC3=O)c1 (centres undefined),,inactive: 6.18%
CCOc1ccccc1N1CCN(C(=O)c2ccccc2)CC1,,inactive: 30.8%
Cc1cc(C)n(CC(=O)n2nc(C)cc2C)n1,active: 10.4 µM,
CC(=O)C1=C(O)C(=O)N(c2ccc(Br)cc2)C1c1ccc(Br)cc1 (centres undefined),"inconclusive: 18.5 µM [inhibitor, single point]",

# Some of the entries so far, with bars between the fields:
Structure (SMILES) | Potency | activity change, negative = inhibition
COc1ccc(/C=N/N(Cc2ccccc2)c2ccccc2)cc1O | inconclusive: 9.28 µM [inhibitor, single point] | 
COc1cccc(Oc2cc(NN3CCCCC3)c([N+](=O)[O-])cc2[N+](=O)[O-])c1OC | inconclusive: 11.7 µM [inhibitor, partial curve, poor fit] | 
Cc1ccc(N(CC(=O)N2CCN(Cc3ccccc3)CC2)S(C)(=O)=O)cc1C | inconclusive: 9.28 µM [inhibitor, single point] | 
CC(NC(=O)c1ccnn1C)C1CCCO1 (centres undefined) | inconclusive: 4.15 µM [inhibitor, single point] | 
COc1nc(Oc2ccc(=O)n(C)n2)nc(N(C)C)n1 | active: 3.7 µM | 
CC(C)C(C(=O)NCc1ccccc1)N(CC1CCCO1)C(=O)CNS(=O)(=O)c1ccccc1 (centres undefined) |  | inactive: -3.82%
N#CC1=C(SCC(=O)Nc2ccc(C(=O)O)cc2)NC(=O)CC1c1ccco1 (centres undefined) |  | inactive: 16.1%
COc1ccc(C2=NN(C(=O)CN3CCCC3)C(c3ccc(OC)cc3)C2)cc1 (centres undefined) | inconclusive: 13.1 µM [inhibitor, single point] | 
COCCCNC(=O)c1c(N)n(Cc2ccco2)c2nc3ccccc3nc12 | inconclusive: 10.4 µM [inhibitor, single point] | 
Cc1ccccc1CSCc1nc(N)nc(Nc2ccccc2C)n1 |  | inactive: -18.1%
CC(C)C(=O)Nc1ccccc1C(=O)N/N=C/c1ccc([N+](=O)[O-])cc1 | inconclusive: 4.65 µM [inhibitor, partial curve] | 
COc1cccc(-c2cc(C(=O)Nc3cnn(Cc4ccccc4C)c3)no2)c1 | inconclusive: 11.7 µM [inhibitor, partial curve, poor fit] | 
Cc1cccc(N2CCN(C(=S)NC3CCCCC3)CC2)c1C |  | inactive: 0.848%
CNS(=O)(=O)c1cccc(C(=O)OCC(=O)N2CCc3ccccc3C2)c1 | inconclusive: 11.7 µM [inhibitor, single point] | 
Cc1ccc(OCCn2ccc(=O)[nH]c2=O)cc1C | inconclusive: 14.7 µM [inhibitor, partial curve, poor fit] | 
O=C(COC(=O)CCNS(=O)(=O)c1ccccc1)NNC(=O)c1ccccc1 |  | inactive: 2.02%
CCOC(=O)C(C)Oc1cccc2c(=O)n(CC(=O)Nc3ccc(OCC)cc3)ccc12 (centres undefined) |  | inactive: 5.55%
CC1CC(C)CN(C(=O)COC(=O)C2CCN(S(=O)(=O)c3ccc4c(c3)OCCO4)CC2)C1 (centres undefined) | inconclusive: 4.15 µM [inhibitor, single point] | 
O=C(NN=C1CCCC1)c1n[nH]c2c1CCC2 | inconclusive: 18.5 µM [inhibitor, single point] | 

# (further entries)

Structure (SMILES),Potency,"activity change, negative = inhibition"
COCC(=O)N1CCC(n2nnc3cc(C(F)(F)F)ccc32)CC1,active: 5.22 µM,
CCc1ccc(N(CC)c2ncnc3nc[nH]c23)cc1,"inconclusive: 10.4 µM [inhibitor, partial curve, poor fit]",
COc1ccc(C(C(=O)NC2CCCCC2)N(C(=O)c2ccco2)c2ccccc2C(C)=O)cc1OC (centres undefined),,inactive: 14.1%
CCN(CC)S(=O)(=O)c1ccc2c(c1)nc(SCC(=O)N1CCOCC1)n2-c1ccccc1OC,active: 11.7 µM,
O=C(NC1CCS(=O)(=O)C1)c1ccccc1C(=O)c1ccccc1 (centres undefined),"inconclusive: 16.5 µM [inhibitor, partial curve, poor fit]",
COC(=O)c1sc2nc(SCc3cccc(Cl)c3)n(N)c(=O)c2c1C,active: 9.28 µM,
O=C(c1cc(-c2ccccc2)nc2ccccc12)N1CCN(C2CCS(=O)(=O)C2)CC1 (centres undefined),"inconclusive: 18.5 µM [inhibitor, single point]",
CCn1cc(C(=O)NCCCN2CC(C)CC(C)C2)c(=O)c2cc(S(=O)(=O)N(C)C)ccc21 (centres undefined),"inconclusive: 18.5 µM [inhibitor, single point]",
CCC(=O)Nc1ccccc1C(=O)N1CCN(Cc2ccccc2)CC1,"inconclusive: 0.165 µM [inhibitor, full curve, poor fit]",
CN(CC(=O)Nc1cccc(S(=O)(=O)N(C)C)c1)Cc1ccccc1,,inactive: -21.8%
COc1cc(C2NC(=O)C(C#N)=C(Nc3cccc(C)c3)S2)ccc1O (centres undefined),inactive,
CC(=O)c1ccc(-n2c(-c3cc(-c4ccco4)[nH]n3)n[nH]c2=S)cc1,"inconclusive: 1.85 µM [inhibitor, partial curve, poor fit]",
S=c1[nH]nc(Cc2ccc(Cl)cc2)o1,,inactive: 33.8%
Cc1cc(N/C=C2\CCCCC2=O)no1,,inactive: -14.3%
CCOc1ccc(C(C(=O)NCC2CCCO2)N(C(=O)c2snc(C(N)=O)c2N)c2ccccc2F)cc1 (centres undefined),"inconclusive: 1.85 µM [inhibitor, full curve]",
COc1ccccc1CN1CCN(Cc2nc(Cc3ccccc3)no2)CC1,active: 11.7 µM,
CC(=O)Nc1ccc(C(=O)OCc2ccc(Br)cc2)cc1,,inactive: -6.35%
Cc1cccc(C)c1NC(=O)C(NC(=O)c1ccccn1)c1ccc([N+](=O)[O-])cc1 (centres undefined),"inconclusive: 18.5 µM [inhibitor, single point]",
COc1cc(OC)cc(C(=O)NNC(=O)CCOc2ccccc2OC)c1,"inconclusive: 18.5 µM [inhibitor, single point]",
Cc1ccc(NS(=O)(=O)c2c(C)[nH]c(=O)[nH]c2=O)cc1F,"inconclusive: 2.62 µM [inhibitor, full curve]",
O=C1c2ccccc2C(Nc2ccccc2)N1c1ccc(Cl)cn1 (centres undefined),"inconclusive: 0.928 µM [inhibitor, full curve, poor fit]",
CC1CN(S(=O)(=O)c2ccc(C(=O)Nc3nnc(-c4ccco4)o3)cc2)CC(C)O1 (centres undefined),"inconclusive: 7.38 µM [inhibitor, partial curve, poor fit]",
CC(=O)Nc1ccc(NC(=O)COC(=O)Cc2c[nH]c3ccccc23)cc1,"inconclusive: 18.5 µM [inhibitor, single point]",
COc1ccc(C(=O)C2CCCN(C(=O)c3ccc4nccnc4c3)C2)c(C)c1 (centres undefined),,inactive: 24.3%
